Measurements reported in PubChem BioAssay AID743121 (NCATS, 2013).

Test: 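Knock-downs that sensitise breast cancer cells to camptothecin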 (primary screen)
System: MDA-MB-231 cells, a human breast cancer line
Reagents: single siRNA against human genes, 20 nM siRNA (0.8 pmol per well)
Timing: 120 h (drug added 48 h after transfection, read 72 h later)
Conditions: camptothecin 20 nM (about EC30) for 72 h; vehicle 0.1% DMSO in parallel plates
Measured: 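Cell viability by ATP luminescence (CellTiter-Glo) as % of non-targeting siRNA wells, and the log2 ratio of viability without drug over viability with camptothecin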
Scale: log2 vehicle/camptothecin viability: higher = stronger sensitisation to camptothecin; viability with camptothecin: higher = more viable cells
Call rule: 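Active genes have an RSA gene-level p-value below 0.001, computed from the ratios of their separate siRNAs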
The deposit covers about 26,000 reagents; shown is a random part of them. Of all reagents, 167 (0.63%) were called active. 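Calls are per gene from RSA p-values that are not deposited; an individual active-marked siRNA can sensitise only weakly.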 Entries without a mark were called inactive. Further read-outs or replicates are left out here. No sequences are given here.

CEBPE (CCAAT enhancer binding protein epsilon) [SID164357984]
- log2 vehicle/camptothecin viability: -0.303
- viability with camptothecin (% of control): 79.6

CEBPE (CCAAT enhancer binding protein epsilon) [SID164357985]
- log2 vehicle/camptothecin viability: -0.507
- viability with camptothecin (% of control): 64.8

CEBPE (CCAAT enhancer binding protein epsilon) [SID164357986]
- log2 vehicle/camptothecin viability: -0.518
- viability with camptothecin (% of control): 60.8

CEBPE (CCAAT enhancer binding protein epsilon) [SID164357987]
- log2 vehicle/camptothecin viability: -0.325
- viability with camptothecin (% of control): 89.5

DAPK3 (death associated protein kinase 3) [SID164361018]
- log2 vehicle/camptothecin viability: -0.354
- viability with camptothecin (% of control): 74.5

DAPK3 (death associated protein kinase 3) [SID164361019]
- log2 vehicle/camptothecin viability: 0.253
- viability with camptothecin (% of control): 84.4

DAPK3 (death associated protein kinase 3) [SID164361021]
- log2 vehicle/camptothecin viability: -0.619
- viability with camptothecin (% of control): 52.7

DAPK3 (death associated protein kinase 3) [SID164361024]
- log2 vehicle/camptothecin viability: -0.216
- viability with camptothecin (% of control): 80.2

SERPINA7 (serpin family A member 7) [SID164390944]
- log2 vehicle/camptothecin viability: -0.107
- viability with camptothecin (% of control): 75.7

SERPINA7 (serpin family A member 7) [SID164390945]
- log2 vehicle/camptothecin viability: -0.215
- viability with camptothecin (% of control): 103

SERPINA7 (serpin family A member 7) [SID164390947]
- log2 vehicle/camptothecin viability: 0.141
- viability with camptothecin (% of control): 80.4

ALDH2 (aldehyde dehydrogenase 2 family member) [SID164352979]
- log2 vehicle/camptothecin viability: 1.15
- viability with camptothecin (% of control): 17.8

ALDH2 (aldehyde dehydrogenase 2 family member) [SID164352980]
- log2 vehicle/camptothecin viability: -0.0726
- viability with camptothecin (% of control): 67.2

ALDH2 (aldehyde dehydrogenase 2 family member) [SID164352981]
- log2 vehicle/camptothecin viability: 0.119
- viability with camptothecin (% of control): 62.5

ALDH2 (aldehyde dehydrogenase 2 family member) [SID164352983]
- log2 vehicle/camptothecin viability: -0.0576
- viability with camptothecin (% of control): 94.4

MAGT1 (magnesium transporter 1) [SID164542813]
- log2 vehicle/camptothecin viability: -0.171
- viability with camptothecin (% of control): 99.8

MAGT1 (magnesium transporter 1) [SID164542815]
- log2 vehicle/camptothecin viability: -0.02
- viability with camptothecin (% of control): 34.6

MAGT1 (magnesium transporter 1) [SID164542816]
- log2 vehicle/camptothecin viability: 0.485
- viability with camptothecin (% of control): 26.1

MAGT1 (magnesium transporter 1) [SID164542817]
- log2 vehicle/camptothecin viability: 1.04
- viability with camptothecin (% of control): 22.9

GPI (glucose-6-phosphate isomerase) [SID164367186]
- log2 vehicle/camptothecin viability: -0.245
- viability with camptothecin (% of control): 60.7

GPI (glucose-6-phosphate isomerase) [SID164367189]
- log2 vehicle/camptothecin viability: -0.394
- viability with camptothecin (% of control): 59.6

GPI (glucose-6-phosphate isomerase) [SID164367192]
- log2 vehicle/camptothecin viability: -0.61
- viability with camptothecin (% of control): 114

GPI (glucose-6-phosphate isomerase) [SID164367193]
- log2 vehicle/camptothecin viability: -0.338
- viability with camptothecin (% of control): 67.8

KDM5A (lysine demethylase 5A) [SID164384805]
- log2 vehicle/camptothecin viability: -0.263
- viability with camptothecin (% of control): 92

KDM5A (lysine demethylase 5A) [SID164384807]
- log2 vehicle/camptothecin viability: -0.271
- viability with camptothecin (% of control): 76.5

KDM5A (lysine demethylase 5A) [SID164384808]
- log2 vehicle/camptothecin viability: 0.09
- viability with camptothecin (% of control): 51.9

PCSK1N (proprotein convertase subtilisin/kexin type 1 inhibitor) [SID164463716]
- log2 vehicle/camptothecin viability: -0.255
- viability with camptothecin (% of control): 90.2

PCSK1N (proprotein convertase subtilisin/kexin type 1 inhibitor) [SID164463717]
- log2 vehicle/camptothecin viability: -0.000447
- viability with camptothecin (% of control): 55.2

PCSK1N (proprotein convertase subtilisin/kexin type 1 inhibitor) [SID164463720]
- log2 vehicle/camptothecin viability: -0.329
- viability with camptothecin (% of control): 113

FLOT2 (flotillin 2) [SID164365141]
- log2 vehicle/camptothecin viability: -0.227
- viability with camptothecin (% of control): 75

FLOT2 (flotillin 2) [SID164365143]
- log2 vehicle/camptothecin viability: 0.0431
- viability with camptothecin (% of control): 87.8

FLOT2 (flotillin 2) [SID164365146]
- log2 vehicle/camptothecin viability: 0.238
- viability with camptothecin (% of control): 55.2

TRIM5 (tripartite motif containing 5) [SID164548409]
- log2 vehicle/camptothecin viability: -0.535
- viability with camptothecin (% of control): 136

TRIM5 (tripartite motif containing 5) [SID164548412]
- log2 vehicle/camptothecin viability: -0.277
- viability with camptothecin (% of control): 64.2

TRIM5 (tripartite motif containing 5) [SID164548414]
- log2 vehicle/camptothecin viability: -0.00947
- viability with camptothecin (% of control): 73

Copied from the list:
Under “viability with camptothecin (% of control)”, SERPINA7 (serpin family A member 7) [SID164390947] has 80.4
Value for PCSK1N (proprotein convertase subtilisin/kexin type 1 inhibitor) [SID164463717] under “log2 vehicle/camptothecin viability”: -0.000447
Under “viability with camptothecin (% of control)”, CEBPE (CCAAT enhancer binding protein epsilon) [SID164357985] has 64.8
PCSK1N (proprotein convertase subtilisin/kexin type 1 inhibitor) [SID164463720], log2 vehicle/camptothecin viability = -0.329
MAGT1 (magnesium transporter 1) [SID164542816], log2 vehicle/camptothecin viability: 0.485
